# Screen size: about 320,000 compounds; about 2,100 (0.66%) were called active. Inconclusive results, whose numbers are uncertain, are shown with a selection of clear calls. The call rests on the fitted dose curve; in most records, active means well fitted inhibition curve with a large enough effect in the signal ratio, with a control signal flat (not every such curve was filed as active); inconclusive means small, poorly fitted or top-dose-only effect, or effect the other way, or a change in a side signal; inactive means flat fitted curve, though single readings scatter; the % refers to the signal ratio. A potency beside an inconclusive call is a rough fit, not a confirmed value.
# Experiment: qHTS Assay for Lipid Storage Modulators in Drosophila S3 Cells
# Settings: BODIPY lipid droplet fluorescence, 18-24 h, cells fed with added oleic acid; lipid storage change, negative = inhibition: at 46.1 µM (top of the series) unless noted
# Procedure, shortened: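 Drosophila S3 cells got compounds at several concentrations plus oleic acid (400 uM solution). Laser-scanning cytometry with 488 nm excitation read lipid droplets at 500-530 nm and cells at 575-640 nm. Percent activity was relative to 20 uM Triacsin C.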
# On the % scale 0 is the no-effect control and ±100 the full control effect; potency means the concentration at half of the fitted maximal effect.
Structure (SMILES),outcome,Potency,"lipid storage change, negative = inhibition"
CCc1c(C)nc(N2CCN(c3ccccc3F)CC2)[nH]c1=O,inactive [at 46.1 µM],,
COc1cc(/C=C/C(=O)O)ccc1OS(=O)(=O)c1cc(Br)ccc1C,,"inconclusive: 0.731 µM [activator, partial curve]",
Oc1ccc(Nc2nnc(-c3ccc(O)cc3)c3ccccc23)cc1,,,inconclusive: -21.2%
CCOC(=O)c1c(C)[nH]c(C(=O)C(C)Sc2ccc(Cl)cc2)c1C (stereo unspecified),,,inconclusive: -27.5%
Cc1ccccc1NC(=S)N=Nc1c(O)n(C)c2ccc(S(=O)(=O)N3CCOCC3)cc12,,"inconclusive: 14.6 µM [falling, partial curve, poor fit]",
COc1ccc(CN2CCN(C(=O)c3ccc(-c4ccccc4)cc3)CC2)c(OC)c1OC,,,inconclusive: 4.79%
CC1CCC(=C(C#N)c2nc(-c3cc4ccccc4oc3=O)cs2)CC1 (stereo unspecified),,"inconclusive: 0.411 µM [activator, full curve, poor fit]",
COc1ccc(OCC(=O)O/N=C(\N)Cc2ccc(Cl)cc2Cl)cc1,,,inconclusive: 89.7%
CCCc1c(C(=O)Nc2cc(C(C)(C)C)on2)cnn1-c1ccccc1,,,inconclusive: 2.09%
O=C(O)c1ccccc1Nc1cc(Cl)c2nonc2c1[N+](=O)[O-],,,inconclusive: 355%
CC(NC(=O)c1ccc(F)cc1Cl)C1CC2CCC1C2 (stereo unspecified),,,inconclusive: -52.4%
Cc1ccc(NC(=O)C(C)[n+]2ccccc2)cc1[N+](=O)[O-] (stereo unspecified),,,inconclusive: -10.2%
Cc1cccc(-c2noc(CN(C)C(=O)COc3ccccc3)n2)c1,,"inconclusive: 29.1 µM [activator, single point]",
CC(C)(C)NCc1cc(Cl)ccc1OCc1ccccc1F,,,inconclusive: 31.1%
O=C(N/N=C/C=C\c1cccc([N+](=O)[O-])c1)c1cccnc1,,,inconclusive: -0.773%
Cc1nc(-c2cn[nH]c2-c2ccc(O)cc2O)cs1,,,inconclusive: -70.7%
CC(C)(C)OC(=O)N1CCC(C(=O)NNC(=O)c2ccc(Cl)cc2Cl)CC1,,,inconclusive: -43.4%
CC(=O)c1cccc(N2C(=O)CC(N3CCN(S(=O)(=O)c4ccc(Cl)cc4)CC3)C2=O)c1 (stereo unspecified),,,inconclusive: 1.75%
COc1ccccc1C(=O)NC(=O)Cn1nc(C)c([N+](=O)[O-])c1C,,,inconclusive
COCCn1c(=O)[nH]c2cc(C(=O)N3CCN(c4ccc(OC)cc4)CC3)ccc2c1=O,,,inconclusive: 2.34%
COC(=O)COc1cc(=O)oc2ccc(NS(=O)(=O)c3ccccc3)cc12,,"inconclusive: 6.51 µM [activator, partial curve]",
CN(C)S(=O)(=O)c1cccc(NC(=O)C2Cc3ccccc3CN2C(=O)c2ccccc2)c1 (stereo unspecified),,"inconclusive: 2.59 µM [falling, full curve]",
COC(=O)/C(=C\C(=O)c1ccc([N+](=O)[O-])cc1)Nc1ccc(OC)cc1,,,inconclusive: -29%
CCCn1nc(NC(=O)c2cccs2)c2cc3cc(C)ccc3nc21,,,inconclusive: -17.8%
O=c1[nH]c(/C=C/c2ccccc2Cl)c([N+](=O)[O-])c(=O)[nH]1,,"inconclusive: 23.1 µM [falling, single point]",
CC(c1ccccc1)C(CC(=O)O)C(=O)NC1CCCCC1 (stereo unspecified),,,inconclusive: -41.3%

# In a second layout: results already given.
Structure (SMILES)	outcome	Potency	lipid storage change, negative = inhibition
CCc1c(C)nc(N2CCN(c3ccccc3F)CC2)[nH]c1=O	inactive [at 46.1 µM]		
COc1cc(/C=C/C(=O)O)ccc1OS(=O)(=O)c1cc(Br)ccc1C		inconclusive: 0.731 µM [activator, partial curve]	
O=C(O)c1ccccc1Nc1cc(Cl)c2nonc2c1[N+](=O)[O-]			inconclusive: 355%
CN(C)S(=O)(=O)c1cccc(NC(=O)C2Cc3ccccc3CN2C(=O)c2ccccc2)c1 (stereo unspecified)		inconclusive: 2.59 µM [falling, full curve]	

# Remaining list, next part

Structure (SMILES),outcome,Potency,"lipid storage change, negative = inhibition"
NS(=O)(=O)c1ccc(CCNC(=O)CSc2ccc3ccccc3c2)cc1,,,inactive: 2.99%
COc1ccc(C(=O)Nc2ccccc2C(=O)Nc2ccccc2C(=O)O)cc1,,,inconclusive: -6.22%
O=C(Nc1ccc(N2CCCCC2)cc1)C1CCCN1S(=O)(=O)c1ccc(F)cc1 (stereo unspecified),,,inconclusive: -4.12%
COC(=O)c1cc(Br)c(=O)n(CCC2=CCCCC2)c1,,,inconclusive: 24.1%
COc1ccccc1NC(=O)c1sc2nc(N3CCOCC3)c3c(c2c1N)CCCC3,,"inconclusive: 29.1 µM [falling, partial curve, poor fit]",
O=C(NC(=S)NNC(=O)c1cnccn1)c1ccc(Cl)cc1,,,inconclusive: 26.5%
CC(=O)c1ccc(S(=O)(=O)NCC2(N3CCOCC3)CCCCC2)cc1,,,inconclusive: 9.4%
Cn1cncc1C#Cc1ccc2cc(C(C)(C)O)oc(=O)c2c1,,,inconclusive: 8.59%
O=C1NC(c2ccccc2)CCO1 (stereo unspecified),,"inconclusive: 29.1 µM [activator, partial curve]",
CCc1nnc(NC(=O)c2cc(Cl)ccn2)s1,,,inconclusive: 9.45%
O=C(CCc1c[nH]c2ccccc12)NC(Cc1c[nH]c2ccccc12)C(=O)O (stereo unspecified),,,inconclusive: 27.9%
CCS(=O)(=O)c1ccc(S(=O)(=O)CC)s1,,,inconclusive: -4.35%
CCNC(=O)COC(=O)c1cc(C)n(-c2ccccc2)c1C,,,inconclusive: 4.49%
O=C(CSc1n[nH]c(-c2ccccc2Cl)n1)NC1CCCCC1,,"inconclusive: 29.1 µM [falling, single point]",
CC(NC(=S)NC(=O)c1ccccc1Br)c1ccccc1 (stereo unspecified),,,inconclusive: -58.9%
O=C(O)c1ccc(OCCCCCCOC2CCCCO2)cc1 (stereo unspecified),,,inconclusive: 11.4%
Cc1oc2c(CN3CCCCC3C)c(O)ccc2c(=O)c1-c1ccccc1 (stereo unspecified),,,inconclusive: 448%
C=CCSc1nnc2c(n1)OC=Nc1ccc(Br)cc1-2,,"inconclusive: 10.3 µM [falling, partial curve, poor fit]",
CCOC(=O)C1CCN(C(=O)CCCNC(=O)Cn2cnc3sc(C)c(C)c3c2=O)CC1,,"inconclusive: 2.91 µM [activator, single point]",
CCOC(=O)CSc1nnc2n(C3CCCCC3)c(=O)c3c4c(sc3n12)CCCC4,,,inconclusive: 54.5%
CN(C)N1C(N)=C(C#N)C(c2ccccc2Cl)C2=C1CCCC2=O (stereo unspecified),,,inconclusive: 369%
CC(C)NS(=O)(=O)c1ccc(CCC(=O)O)cc1,,,inconclusive: -7.38%
COc1ccc(N=Nc2ccc(O)c3ncccc23)cc1,,"inconclusive: 14.6 µM [falling, partial curve]",
COc1ccccc1CNC(=O)COC(=O)COc1ccccc1F,,,inconclusive: 40.3%
CCn1c(SCC(=O)Nc2cccc(S(=O)(=O)N(C)c3ccccc3)c2)nnc1C1CC1,,,inactive: -1.58%
CC(C)(C)c1ccc(OC(=O)c2ccc(-n3cncn3)nc2)cc1,,,inconclusive: -30.6%

Structure (SMILES),outcome,Potency,"lipid storage change, negative = inhibition"
CCN(C(=O)C(C)OC(=O)C1C(C(=O)OC)=C(C)NC(C)=C1C(=O)OC)c1ccccc1 (stereo unspecified),,,inconclusive: -13.7%
CCOc1ccc(C(=O)/C=C/Nc2ccc(S(=O)(=O)Nc3cc(C)nc(C)n3)cc2)cc1,,,inconclusive: 38.4%
CC(C)(C)OC(=O)CNC(=O)c1nc[nH]c1C(=O)N1CCc2ccccc2C1,,,inconclusive: -36.3%
Cc1cccc(OCCOCCN2CCNCC2)c1C,,,inconclusive: 0.778%
COc1ccc(NC(=O)c2cccc(NC(=O)C3C4CC5OC(=O)C3C5C4)c2)c(OC)c1 (stereo unspecified),,"inconclusive: 10.3 µM [rising, partial curve, poor fit]",
COc1ccccc1NCc1cc(=O)oc2c(C)c(O)ccc12,,"inconclusive: 0.231 µM [falling, full curve, poor fit]",
O=C1/C(=C\Nc2ccc(OC(F)(F)F)cc2)CCN1c1ncccn1,,"inconclusive: 20.6 µM [activator, single point]",
COc1cccc2cc(C(=O)NCC3CCCO3)c(=O)oc12 (stereo unspecified),,"inconclusive: 8.2 µM [activator, partial curve, poor fit]",
Cc1ccccc1-c1cc2nc(C)c(C)c(=O)n2[nH]1,,,inconclusive: 1.79%
CCOC(=O)c1cc(-c2ccncc2)nc2c1c(C)nn2-c1ccccn1,,"inconclusive: 20.6 µM [activator, single point]",
O=C(Nc1ccc(Cl)cc1C(=O)Nc1ccccn1)c1ccco1,,"inconclusive: 7.31 µM [activator, partial curve]",
CCN(CC)S(=O)(=O)c1cc(NC(=O)c2ccc3c(c2)NC(=O)C(C)S3)ccc1C (stereo unspecified),,"inconclusive: 1.03 µM [falling, partial curve]",
Cc1cc(C(=O)NCc2ccccc2)c(=O)[nH]c1C,,,inconclusive: 21.6%
CN1C(=O)CSc2ccc(NC(=O)N3CCC(N4CCCCC4)CC3)cc21,,,inconclusive: -6.38%
COc1ccc(NC(=O)CN2CCN(CC(=O)Nc3cc(OC)cc(OC)c3)CC2)cc1,,"inconclusive: 1.64 µM [activator, partial curve]",
CCOc1cccc(-c2nnc3sc(-c4cc(OC)c(OC)c(OC)c4)nn23)c1,,,inconclusive: -34.1%
O=C(O)CCCC(=O)Nc1ccc(Sc2ccc([N+](=O)[O-])cc2)cc1,,,inconclusive: 7.11%
Cc1cccc[n+]1CC(=O)N1c2ccccc2Sc2ccccc21,,,inconclusive: 10.7%
CC12CCC(=O)N1C(C(=O)OCC(=O)Nc1ccc(Cl)c(Cl)c1)CS2 (stereo unspecified),,,inconclusive: -1.93%
O=C(CSc1ncccc1-c1nc2ccccc2[nH]1)NCc1ccco1,,"inconclusive: 0.517 µM [activator, full curve]",
O=C(NNC(=O)c1cccnc1)Nc1cccc2ccccc12,,,inconclusive: -9.23%
O=C(O)C1C2C=CC(C2)C1C(=O)Nc1ccccc1Br (stereo unspecified),,"inconclusive: 0.116 µM [activator, full curve, poor fit]",
CCCc1cc(C(=O)NCc2ccc(OC)cc2)no1,,,inconclusive: 2.57% [at 9.22 µM]
CC(=O)Nc1ccc(NC(=O)CCCCCN2C(=O)c3ccccc3C2=O)cc1,,"inconclusive: 29.1 µM [rising, single point]",

# — PubChem BioAssay AID2685 (National Center for Advancing Translational Sciences (NCATS), 2010)
